Source: PubChem BioAssay AID686937 (Drosophila RNAi Screening Center, 2013)

- Assay: 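Knock-downs that reduce output of a secreted reporter enzyme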 (primary screen)
- Cell system: Drosophila S2 cells expressing secreted horseradish peroxidase
- Reagent: long dsRNA against Drosophila genes
- Duration: about 5.5 days (5 days dsRNA, then 12 h reporter induction)
- Treatment: reporter expression induced after 5 days of dsRNA, read 12 h later; inducer not stated
- Detection: 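After 5 days of dsRNA and 12 h of reporter induction, medium peroxidase read by chemiluminescence and scored as per-plate z-score; higher values mean more reporter released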
- Scale: z-score: higher = more reporter secreted into medium
In all, the deposit lists about 23,000 reagents; this is a random part of those with a known target gene and a result. 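Reduced-secretion tags in replicate 1 do not always agree with the z-scores; no criterion for assigning the tags was given.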 A plus sign joins genes that one reagent is predicted to hit. Further read-outs or replicates are left out here. Reagent sequences are not shown. The record does not give: the amount of reagent.

| Gene | DRSC id | z-score, replicate 1 | z-score, replicate 2 |
| --- | --- | --- | --- |
| CG8675 | DRSC20117 | 0.15 | 0.26 |
| Alg10 | DRSC10892 | 0.47 | 0.43 |
| CG31051 | DRSC15034 | 0.33 | 0.6 |
| Art7 | DRSC04588 | 0.43 | 0.41 |
| CG1946 | DRSC06804 | 0.2 | 0.25 |
| NLaz | DRSC21521 | 0.36 | -0.45 |
| CG16978 | DRSC02553 | -0.21 | 0.39 |
| mAChR-A | DRSC04702 | 0.6 | 0.65 |
| MFS1 | DRSC04115 | 0.06 | 0.22 |
| fu | DRSC20333 | -1.88 | -0.25 |
| CG13215 | DRSC06337 | 0.42 | 0.44 |
| upd2 | DRSC19969 | 0.38 | 0.56 |
| CG31275 | DRSC16919 | 0.48 | 0.72 |
| CG30060 | DRSC05419 | 0.21 | 0.26 |
| hpRNA:CR18854 + IP3K1 | DRSC02218 | 0.51 | 0.48 |
| Hs2st | DRSC03348 | 0.21 | 0.22 |
| Kah | DRSC07887 | 0.85 | 0.47 |
| Kah | DRSC08515 | 0.53 | 0.19 |
| Acp24A4 | DRSC22352 | -0.75 | -0.07 |
| CG15712 | DRSC06583 | 0.12 | 0.08 |
| CG7849 | DRSC04895 | 0.26 | 0.18 |
| CG31524 | DRSC22014 | 0.79 | 0.62 |
| CG17141 | DRSC15178 | 0.15 | 0.18 |
| Bin1 | DRSC16843 | 0.49 | 0.59 |
| CG34155 | DRSC13991 | 0.07 | 0.48 |
| Tsp42Ee | DRSC05947 | 0.48 | 0.46 |
| CG14237 | DRSC14731 | 0.58 | 0.75 |
| Lsm12a | DRSC19702 | 0.25 | 0.29 |
| mRpS16 | DRSC07152 | -0.01 | -0.28 |
| verm | DRSC11038 | 0.26 | 0.26 |
| CG15800 | DRSC04271 | 0.32 | 0.19 |
| CG31528 | DRSC12003 | 0.35 | 0.23 |
| CG5335 | DRSC06931 | 0.28 | 0.4 |
| PpN58A | DRSC04642 | 0.1 | 0.18 |
| Muc68Ca | DRSC10312 | 0.61 | 0.68 |
| Muc68Ca | DRSC10313 | 0.29 | 0.49 |
| CG12620 | DRSC02177 | 0.09 | 0.05 |
| Ag5r2 | DRSC19328 | 0.14 | -0.23 |
| CG31457 | DRSC22935 | -0.62 | -0.35 |
| unc-119 | DRSC18846 | 0.33 | 0.39 |
| PGAP2 | DRSC00632 | 0.11 | 0.02 |
| CG4734 | DRSC06885 | 0.32 | 0.43 |
| CG4734 | DRSC22072 | 0.55 | -0.45 |
| CG34423 + Mthfs | DRSC04088 | 0.36 | -0.18 |
| Gr93a | DRSC14593 | 0.26 | 0.13 |
| CG7386 | DRSC10832 | 0.52 | 0.22 |
| Sting | DRSC06615 | 0.15 | 0.4 |
| CG31245 | DRSC15498 | 0.4 | 0.44 |
| NT1 | DRSC08530 | 0.45 | 0.52 |
| NT1 | DRSC22895 | -0.16 | 0.06 |
| Teh1 | DRSC14544 | 0.26 | 0.64 |
| Setx | DRSC10859 | 0.44 | -0.21 |
| Ptp36E | DRSC03021 | 0.54 | 0.54 |
| CG30122 | DRSC06776 | -0.01 | 0.23 |
| CG30122 | DRSC06935 | 0.34 | 0.24 |
| CG15657 | DRSC04248 | 0.23 | 0.16 |
| CG16721 | DRSC18113 | 0.46 | 0.46 |
| CG16734 | DRSC15143 | -0.31 | -0.03 |
| Pp1alpha-96A | DRSC16795 | 0.44 | 0.54 |
| CG15771 | DRSC18077 | 0.32 | 0.34 |
| RtGEF | DRSC03604 | 0.35 | 0.51 |
| RtGEF | DRSC22207 | 0.53 | -0.04 |
| CG10903 | DRSC14281 | 0.01 | -1.07 |
| CG10616 | DRSC09750 | 0.04 | -0.02 |
| haf | DRSC00381 | -0.05 | -0.1 |
| csul | DRSC07599 | 0.25 | 0.3 |
| CR33319 | DRSC01826 | 0.39 | -4.61 |
| CG17648 | DRSC00508 | 0.19 | -0.05 |
| CR31700 | DRSC03682 | 0.64 | 0.09 |
| CG12828 | DRSC06177 | 0.19 | 0.17 |
| zld | DRSC19486 | -1.51 | 0.02 |
| zld | DRSC21721 | 0.22 | 0.21 |
| Calx | DRSC13457 | -2.25 | 0.64 |
| Calx | DRSC13459 | 0.59 | -0.07 |
| Calx | DRSC16599 | 0.42 | 0.47 |
| Calx | DRSC21850 | 0.83 | 0.77 |
| CHOp24 | DRSC18310 | -0.38 | -0.53 |
| CG17931 + CG42446 | DRSC15293 | 0.39 | 0.52 |
| CanB | DRSC18449 | 0.32 | 0.09 |
| Cap-G | DRSC06652 | 0.13 | 0.49 |
| Cap-G | DRSC06653 | 0.09 | -0.07 |
| Cap-G | DRSC21805 | -2.86 | -1.18 |

In a second layout: results already given.
{"Gene":"Ptp36E","DRSC id":"DRSC03021","z-score, replicate 1":0.54,"z-score, replicate 2":0.54}
{"Gene":"CG30122","DRSC id":"DRSC06776","z-score, replicate 1":-0.01,"z-score, replicate 2":0.23}
{"Gene":"CG30122","DRSC id":"DRSC06935","z-score, replicate 1":0.34,"z-score, replicate 2":0.24}
{"Gene":"CG15657","DRSC id":"DRSC04248","z-score, replicate 1":0.23,"z-score, replicate 2":0.16}
{"Gene":"CG16721","DRSC id":"DRSC18113","z-score, replicate 1":0.46,"z-score, replicate 2":0.46}
{"Gene":"CG16734","DRSC id":"DRSC15143","z-score, replicate 1":-0.31,"z-score, replicate 2":-0.03}
{"Gene":"Pp1alpha-96A","DRSC id":"DRSC16795","z-score, replicate 1":0.44,"z-score, replicate 2":0.54}
